Measurements from PubChem BioAssay (EPA / NIEHS).
The shares of active, inactive and inconclusive entries below differ from those in the screen. A potency beside an inconclusive call is a rough fit, not a confirmed value. The source made the active and inactive calls. Rule for the calls: active = hit-call score of the fitted dose curve at least 0.9, where 1 is the maximum; inconclusive = response in the unintended direction; inactive = score below 0.9.

Sequences of proteins named here, by UniProt entry; tags and fusion partners are left off. A change or cut given only in a name is not applied to a line headed by its entry.
UniProt P67775, whole entry, looked up: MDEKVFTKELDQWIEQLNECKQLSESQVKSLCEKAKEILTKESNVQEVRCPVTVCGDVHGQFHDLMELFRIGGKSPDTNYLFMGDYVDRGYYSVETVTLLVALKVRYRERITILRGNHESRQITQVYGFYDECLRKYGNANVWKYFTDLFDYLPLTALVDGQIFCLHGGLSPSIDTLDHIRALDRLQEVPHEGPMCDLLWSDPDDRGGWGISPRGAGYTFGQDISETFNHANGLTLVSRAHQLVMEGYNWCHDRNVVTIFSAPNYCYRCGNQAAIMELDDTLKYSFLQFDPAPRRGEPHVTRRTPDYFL
UniProt P60484: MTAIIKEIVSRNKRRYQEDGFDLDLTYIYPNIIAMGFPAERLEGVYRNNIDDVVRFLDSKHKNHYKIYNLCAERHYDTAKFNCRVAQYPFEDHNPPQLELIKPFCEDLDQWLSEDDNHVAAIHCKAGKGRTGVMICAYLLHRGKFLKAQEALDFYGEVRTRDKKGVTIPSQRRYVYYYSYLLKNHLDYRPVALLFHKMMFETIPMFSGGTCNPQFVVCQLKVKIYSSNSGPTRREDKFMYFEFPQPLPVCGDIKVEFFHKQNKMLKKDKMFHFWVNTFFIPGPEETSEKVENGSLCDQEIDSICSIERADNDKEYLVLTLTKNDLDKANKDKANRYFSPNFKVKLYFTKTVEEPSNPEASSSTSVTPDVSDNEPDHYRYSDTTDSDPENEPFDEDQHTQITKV

Target: PPP2CA (gene 5515) (UniProt P67775)
Assay: NVS_ENZ_hPPP2CA: NovaScreen (NVS) Enzymatic Assay for human Protein Phosphatase 2 Aatalytic subunit Alpha (PPP2CA) (AID 2283199)
Method: NVS_ENZ_hPPP2CA is a biochemical, single-readout assay that uses extracted gene-proteins in a cell-free assay. Measurements were taken 1.33 hours after chemical dosing in a 384-well plate.NVS_ENZ_hPPP2CA is one of one assay component(s) measured or calculated from the NVS_ENZ_hPPP2CA assay. It is designed to make measurements of enzyme activity, a form of enzyme reporter, as detected with fluorescence intensity signals by Fluorescence and electrophoretic mobility shift technology.Data from the assay component NVS_ENZ_hPPP2CA was analyzed into 1 assay endpoint. This assay endpoint, NVS_ENZ_hPPP2CA, was analyzed in the positive analysis fitting direction relative to DMSO as the negative control and baseline of activity. Using a type of enzyme reporter, loss-of-signal activity can be used to understand changes in the enzymatic activity as they relate to the gene PPP2CA. Furthermore, this assay endpoint can be referred to as a primary readout, because this assay has produced multiple assay endpoints where this one serves a enzymatic activity function. To generalize the intended target to other relatable targets, this assay endpoint is annotated to the phosphatase intended target family, where the subfamily is serine/threonine phosphatase.
Binding assays used specific radioligands (tritiated, iodinated) with non-radioactive competitive displacement ligands in agonist or antagonist protocols (as indicated) and various reference compounds and inhibitors to titrate specific binding to receptors and transporters. Most enzyme assays (CYPs, kinases, phosphatases, proteases, HDACs) used recombinant protein and specific substrates (fluorescence mostly, some colorimetric and radioactive) and inhibitors, followed by a biochemical separation of substrate and product. All assays for the biochemical HTS were initially run in duplicate at a single concentration (10 uM for CYP450 assays and 25 uM for all others). Assay-chemical combinations meeting a pre-defined threshold (e.g., 30% inhibition and other criteria defined below) were then run in singleton concentration-response format with maximum concentration of 20 uM for CYPs and 50 uM for all others. Each assay was run with positive and negative controls, and concurrent controls on every plate. The follow-up (secondary) screen tested active chemical-pairs in concentration series, as well as a few additional assays not tested in the primary screen, some selected negative inactives, and several cases re-run in the concentration series for confirmatory purposes.

Row | Structure (SMILES) | AC50 | outcome
1 | N#Cc1cccnc1 | inconclusive: 4960 nM | 
2 | Oc1ccc(Cl)cc1Cc1ccccc1 | inconclusive: 317 nM | 
3 | CCCN(CCC)c1c([N+](=O)[O-])cc(S(N)(=O)=O)cc1[N+](=O)[O-] |  | inactive

Target: human Phosphatase and Tensin Homolog (PTEN), PTEN (gene 5728) (UniProt P60484)
Assay: NVS_ENZ_hPTEN: NovaScreen (NVS) Enzymatic Assay for human Phosphatase and Tensin Homolog (PTEN) (AID 2283203)
Summary of the method: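 Cell-free recombinant human PTEN with fluorescent substrate; product separated by electrophoretic mobility shift and read by fluorescence 1 h after dosing. Primary screen in duplicate at 25 uM, actives followed in concentration series versus DMSO.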

Row | Structure (SMILES) | outcome | AC50
4 | N#Cc1cccnc1 | inactive | 
5 | CC(C)CCCCCCCOP(=O)(Oc1ccccc1)Oc1ccccc1 |  | inconclusive: 180 nM
6 | CCNS(=O)(=O)C(F)(F)C(F)(F)C(F)(F)C(F)(F)C(F)(F)C(F)(F)C(F)(F)C(F)(F)F | inactive | 
